# From patent EP2680005A1, “Lipid analysis” (Rheinische Friedrich-Wilhelms-Universität Bonn, priority 2012, dated 2014)
# Assay: Sensitivity and linearity of click detection (TLC, fluorescence imaging)
substance,measurement,setting,value
Alkyne-oleoyl-cholesterol [cholesterol ester of alkyne-oleate],slope of response curve in a double logarithmic plot,concentration range 13.5 nM to 40 µM,0.91
same,lower detection level (concentration),reaction volume 30 µl,13.5 nM
same,lower detection level (total substance),reaction volume 30 µl,0.4 pmol
